The record followed here is the supplement of paper PMC10849652.

The chains behind the UniProt entries cited, without tags or fusion partners. Where a name states a change or a piece, a line headed by the entry shows the natural chain unless it says otherwise.
UniProt O43529: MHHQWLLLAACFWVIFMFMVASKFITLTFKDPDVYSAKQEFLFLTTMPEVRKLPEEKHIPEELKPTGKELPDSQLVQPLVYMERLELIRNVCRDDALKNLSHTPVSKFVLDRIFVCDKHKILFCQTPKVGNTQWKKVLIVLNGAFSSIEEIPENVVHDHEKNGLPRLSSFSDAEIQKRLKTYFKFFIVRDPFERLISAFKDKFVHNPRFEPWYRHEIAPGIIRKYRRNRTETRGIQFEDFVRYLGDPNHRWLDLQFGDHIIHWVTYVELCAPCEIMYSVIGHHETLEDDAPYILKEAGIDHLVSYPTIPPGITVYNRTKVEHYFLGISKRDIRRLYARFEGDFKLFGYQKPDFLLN
UniProt Q8N3C7: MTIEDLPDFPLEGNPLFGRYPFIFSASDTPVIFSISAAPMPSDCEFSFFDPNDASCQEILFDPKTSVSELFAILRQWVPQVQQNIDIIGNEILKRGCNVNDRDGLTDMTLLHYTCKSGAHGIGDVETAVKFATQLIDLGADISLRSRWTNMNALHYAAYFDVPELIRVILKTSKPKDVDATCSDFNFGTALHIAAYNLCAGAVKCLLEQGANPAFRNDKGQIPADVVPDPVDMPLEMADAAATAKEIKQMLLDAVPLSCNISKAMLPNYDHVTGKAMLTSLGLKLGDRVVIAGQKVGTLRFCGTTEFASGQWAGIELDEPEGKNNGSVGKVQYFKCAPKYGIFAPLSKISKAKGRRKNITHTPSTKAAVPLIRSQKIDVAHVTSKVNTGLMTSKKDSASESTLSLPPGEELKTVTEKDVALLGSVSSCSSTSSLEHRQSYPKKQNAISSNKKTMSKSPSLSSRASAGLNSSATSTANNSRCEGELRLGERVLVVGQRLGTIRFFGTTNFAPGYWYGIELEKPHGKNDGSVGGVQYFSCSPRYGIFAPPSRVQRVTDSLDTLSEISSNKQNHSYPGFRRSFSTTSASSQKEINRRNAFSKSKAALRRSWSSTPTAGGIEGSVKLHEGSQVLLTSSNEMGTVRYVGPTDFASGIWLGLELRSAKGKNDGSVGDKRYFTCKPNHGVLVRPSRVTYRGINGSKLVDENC
UniProt Q96AJ1: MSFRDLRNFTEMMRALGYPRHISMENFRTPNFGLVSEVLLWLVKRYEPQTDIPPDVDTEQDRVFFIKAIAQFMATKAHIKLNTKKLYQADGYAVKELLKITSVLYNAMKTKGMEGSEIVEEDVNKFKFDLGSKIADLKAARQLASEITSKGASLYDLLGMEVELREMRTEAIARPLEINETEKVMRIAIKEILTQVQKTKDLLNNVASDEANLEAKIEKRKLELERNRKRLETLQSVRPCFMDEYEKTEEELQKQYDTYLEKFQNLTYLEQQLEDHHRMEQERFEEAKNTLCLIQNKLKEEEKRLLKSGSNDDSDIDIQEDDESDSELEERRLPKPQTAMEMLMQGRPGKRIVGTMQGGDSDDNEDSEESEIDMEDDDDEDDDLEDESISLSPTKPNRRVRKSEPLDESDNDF
UniProt P0C7P0: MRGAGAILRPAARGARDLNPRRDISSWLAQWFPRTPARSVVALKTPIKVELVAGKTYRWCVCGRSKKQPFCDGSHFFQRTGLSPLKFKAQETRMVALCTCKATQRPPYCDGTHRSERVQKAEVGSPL
UniProt P09496: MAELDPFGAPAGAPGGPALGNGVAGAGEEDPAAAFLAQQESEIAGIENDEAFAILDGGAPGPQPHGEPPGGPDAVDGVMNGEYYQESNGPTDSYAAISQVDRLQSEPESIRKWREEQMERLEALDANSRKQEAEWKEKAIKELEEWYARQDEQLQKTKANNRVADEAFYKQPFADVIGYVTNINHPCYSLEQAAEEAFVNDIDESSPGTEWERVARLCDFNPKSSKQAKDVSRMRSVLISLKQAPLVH
UniProt P49761: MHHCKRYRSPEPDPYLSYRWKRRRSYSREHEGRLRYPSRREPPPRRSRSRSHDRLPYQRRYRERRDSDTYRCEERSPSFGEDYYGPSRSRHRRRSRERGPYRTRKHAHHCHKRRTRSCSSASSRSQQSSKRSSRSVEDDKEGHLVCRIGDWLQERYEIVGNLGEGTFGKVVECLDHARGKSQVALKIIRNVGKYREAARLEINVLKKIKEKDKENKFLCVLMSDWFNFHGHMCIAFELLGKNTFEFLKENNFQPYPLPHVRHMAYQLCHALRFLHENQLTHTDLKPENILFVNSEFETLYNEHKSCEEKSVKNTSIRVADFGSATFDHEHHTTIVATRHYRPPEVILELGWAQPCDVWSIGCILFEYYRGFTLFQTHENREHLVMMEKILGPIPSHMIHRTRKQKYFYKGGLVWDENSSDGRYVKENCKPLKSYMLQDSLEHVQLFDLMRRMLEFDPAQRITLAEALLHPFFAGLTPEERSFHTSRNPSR
UniProt Q00610: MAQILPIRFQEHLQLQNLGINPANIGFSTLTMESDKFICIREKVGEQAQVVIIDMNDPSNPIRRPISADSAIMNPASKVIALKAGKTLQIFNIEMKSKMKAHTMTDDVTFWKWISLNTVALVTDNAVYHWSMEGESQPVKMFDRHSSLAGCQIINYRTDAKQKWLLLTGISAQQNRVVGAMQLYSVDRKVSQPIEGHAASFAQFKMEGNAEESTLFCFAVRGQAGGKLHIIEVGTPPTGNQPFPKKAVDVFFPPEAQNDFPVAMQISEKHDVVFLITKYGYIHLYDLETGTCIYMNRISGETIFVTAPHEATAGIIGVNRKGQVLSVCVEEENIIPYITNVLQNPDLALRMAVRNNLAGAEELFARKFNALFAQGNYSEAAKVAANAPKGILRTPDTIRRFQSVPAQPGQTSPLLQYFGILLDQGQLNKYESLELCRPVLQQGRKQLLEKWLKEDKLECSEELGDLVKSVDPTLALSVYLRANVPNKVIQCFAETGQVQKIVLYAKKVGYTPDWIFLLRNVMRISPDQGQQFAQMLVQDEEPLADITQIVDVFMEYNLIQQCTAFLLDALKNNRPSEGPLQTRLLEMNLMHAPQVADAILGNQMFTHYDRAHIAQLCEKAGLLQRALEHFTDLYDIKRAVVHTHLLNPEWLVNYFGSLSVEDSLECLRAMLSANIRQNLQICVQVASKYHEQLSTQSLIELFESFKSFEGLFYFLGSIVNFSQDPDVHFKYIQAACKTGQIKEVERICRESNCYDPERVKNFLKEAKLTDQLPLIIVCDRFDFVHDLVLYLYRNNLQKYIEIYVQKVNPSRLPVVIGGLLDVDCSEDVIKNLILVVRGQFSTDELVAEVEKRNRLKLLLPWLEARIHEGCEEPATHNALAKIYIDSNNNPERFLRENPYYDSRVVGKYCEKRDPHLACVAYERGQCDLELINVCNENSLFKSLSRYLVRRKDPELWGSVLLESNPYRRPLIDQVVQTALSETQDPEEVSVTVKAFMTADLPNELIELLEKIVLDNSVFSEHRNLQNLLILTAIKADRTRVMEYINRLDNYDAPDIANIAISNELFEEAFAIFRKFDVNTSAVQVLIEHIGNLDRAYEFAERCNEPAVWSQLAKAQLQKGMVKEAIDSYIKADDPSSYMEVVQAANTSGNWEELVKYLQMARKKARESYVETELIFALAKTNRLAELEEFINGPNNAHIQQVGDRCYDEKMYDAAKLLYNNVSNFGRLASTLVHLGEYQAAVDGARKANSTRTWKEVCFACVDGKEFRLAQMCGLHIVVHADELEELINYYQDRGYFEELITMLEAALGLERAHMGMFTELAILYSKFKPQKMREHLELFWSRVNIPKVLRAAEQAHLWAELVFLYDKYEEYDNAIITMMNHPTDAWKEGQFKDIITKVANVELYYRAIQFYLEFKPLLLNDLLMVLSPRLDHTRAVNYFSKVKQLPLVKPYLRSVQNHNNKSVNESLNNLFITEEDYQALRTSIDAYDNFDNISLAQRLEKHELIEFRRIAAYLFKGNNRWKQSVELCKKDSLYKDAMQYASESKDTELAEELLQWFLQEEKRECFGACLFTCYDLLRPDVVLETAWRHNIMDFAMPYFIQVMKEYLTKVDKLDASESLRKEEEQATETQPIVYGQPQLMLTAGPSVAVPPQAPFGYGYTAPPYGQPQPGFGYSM
UniProt Q7Z460: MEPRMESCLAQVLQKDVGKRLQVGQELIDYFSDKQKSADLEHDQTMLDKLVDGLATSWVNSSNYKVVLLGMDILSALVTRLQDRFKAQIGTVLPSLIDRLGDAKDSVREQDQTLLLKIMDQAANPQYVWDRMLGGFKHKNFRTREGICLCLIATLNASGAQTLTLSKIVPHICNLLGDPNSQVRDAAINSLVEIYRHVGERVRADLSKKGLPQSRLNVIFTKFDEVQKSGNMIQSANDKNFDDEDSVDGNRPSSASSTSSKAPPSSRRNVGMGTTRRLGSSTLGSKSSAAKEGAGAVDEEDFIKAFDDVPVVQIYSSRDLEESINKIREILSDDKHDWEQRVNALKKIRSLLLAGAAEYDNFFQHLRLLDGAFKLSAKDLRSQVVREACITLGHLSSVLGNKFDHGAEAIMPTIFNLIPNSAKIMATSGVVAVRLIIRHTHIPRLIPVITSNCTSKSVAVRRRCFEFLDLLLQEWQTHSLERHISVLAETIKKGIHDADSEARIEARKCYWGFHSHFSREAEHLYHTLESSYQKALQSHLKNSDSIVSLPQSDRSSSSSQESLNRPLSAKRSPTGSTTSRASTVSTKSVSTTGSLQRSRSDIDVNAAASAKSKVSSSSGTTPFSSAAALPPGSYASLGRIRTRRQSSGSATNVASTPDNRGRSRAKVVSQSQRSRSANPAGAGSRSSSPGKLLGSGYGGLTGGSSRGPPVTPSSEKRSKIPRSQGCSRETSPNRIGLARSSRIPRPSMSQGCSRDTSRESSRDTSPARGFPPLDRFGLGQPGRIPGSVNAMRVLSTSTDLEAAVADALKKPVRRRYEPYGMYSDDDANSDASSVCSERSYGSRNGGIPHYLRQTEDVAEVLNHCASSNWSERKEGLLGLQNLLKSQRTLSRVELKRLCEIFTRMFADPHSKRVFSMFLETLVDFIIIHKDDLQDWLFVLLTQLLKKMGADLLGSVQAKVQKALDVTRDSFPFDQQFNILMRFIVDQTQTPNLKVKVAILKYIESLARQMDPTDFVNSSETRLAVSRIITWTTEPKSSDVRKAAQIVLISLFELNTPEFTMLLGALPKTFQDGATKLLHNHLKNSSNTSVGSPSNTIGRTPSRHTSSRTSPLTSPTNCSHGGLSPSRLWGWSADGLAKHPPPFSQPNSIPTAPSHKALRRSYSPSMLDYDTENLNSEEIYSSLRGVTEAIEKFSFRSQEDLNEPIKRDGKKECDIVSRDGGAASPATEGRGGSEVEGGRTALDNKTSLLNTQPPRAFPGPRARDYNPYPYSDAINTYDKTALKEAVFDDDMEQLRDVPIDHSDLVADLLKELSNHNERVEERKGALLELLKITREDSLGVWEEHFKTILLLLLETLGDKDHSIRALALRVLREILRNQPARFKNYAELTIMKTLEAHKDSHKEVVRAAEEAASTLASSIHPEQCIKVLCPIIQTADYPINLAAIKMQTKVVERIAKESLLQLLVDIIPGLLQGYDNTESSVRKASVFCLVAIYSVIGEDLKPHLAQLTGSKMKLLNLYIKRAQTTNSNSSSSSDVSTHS
UniProt Q96EP1: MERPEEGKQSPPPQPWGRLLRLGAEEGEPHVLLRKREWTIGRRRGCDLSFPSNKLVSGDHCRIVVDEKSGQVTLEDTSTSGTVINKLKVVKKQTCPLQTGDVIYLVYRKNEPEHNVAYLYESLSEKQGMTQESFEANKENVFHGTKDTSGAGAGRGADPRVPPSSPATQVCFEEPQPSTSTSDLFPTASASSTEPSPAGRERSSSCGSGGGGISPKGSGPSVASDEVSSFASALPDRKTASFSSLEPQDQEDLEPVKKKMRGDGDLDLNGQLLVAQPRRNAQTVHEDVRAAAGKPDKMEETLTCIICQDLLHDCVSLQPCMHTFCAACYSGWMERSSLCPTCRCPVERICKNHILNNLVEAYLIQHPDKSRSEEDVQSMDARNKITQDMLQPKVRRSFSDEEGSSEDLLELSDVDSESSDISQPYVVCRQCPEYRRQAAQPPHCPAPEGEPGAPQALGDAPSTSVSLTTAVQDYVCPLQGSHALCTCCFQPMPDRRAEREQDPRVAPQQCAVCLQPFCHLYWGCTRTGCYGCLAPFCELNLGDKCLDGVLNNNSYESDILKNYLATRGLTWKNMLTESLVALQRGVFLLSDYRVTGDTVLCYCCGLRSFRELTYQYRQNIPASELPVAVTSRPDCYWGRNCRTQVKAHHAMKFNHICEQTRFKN
UniProt O75503: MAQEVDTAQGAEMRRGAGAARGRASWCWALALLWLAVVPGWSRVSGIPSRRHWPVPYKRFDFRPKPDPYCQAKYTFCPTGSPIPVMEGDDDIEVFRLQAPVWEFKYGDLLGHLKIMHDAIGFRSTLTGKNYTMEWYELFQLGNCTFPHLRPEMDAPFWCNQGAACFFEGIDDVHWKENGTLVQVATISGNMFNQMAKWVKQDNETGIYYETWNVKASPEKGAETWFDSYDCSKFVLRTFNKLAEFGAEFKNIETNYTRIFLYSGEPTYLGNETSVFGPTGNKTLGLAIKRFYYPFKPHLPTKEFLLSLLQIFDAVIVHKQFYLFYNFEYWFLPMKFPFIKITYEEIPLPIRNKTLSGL

Some of the results follow.

Compound in the assay: C1=CC=C2C(=C1)C3=NNC4=CC=CC(=C43)C2=O
Description: log2 fold change, soluble protein after heating vs DMSO (PISA); higher = thermal stabilisation; K562 lysate, 10 uM; active = over 0.2 and 3.5 SD of the protein, either way, in both replicates (recomputed). In short, it runs like this:
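Soluble protein was defined as the supernatant remaining after 21,000xg for 90 min, following pooling of heated aliquots and adjustment to 0.5% NP-40 at 4°C. Before that, crude K562 extract at 1 mg/mL protein in PBS pH 7.4 with 1 mM MgCl2 was treated with 10 μM compound for 30 min and heated for 3 min across 48°C-58°C. Quantification used TMTpro 16plex LC-MS/MS with channel sums equalised, and values are log-two fold changes in thermal stability relative to solvent controls from duplicates.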
CHPF2 (UniProt Q9P2E5): the log2 fold change is inactive: -0.08. The figure for CHST10 (UniProt O43529) is inactive: 0.052. As to CLIP4 (UniProt Q8N3C7), the log2 fold change was inactive: 0.031. The value for CLUAP1 (UniProt Q96AJ1) was inactive: -0.291. The figure for CISD3 (UniProt P0C7P0) is inactive: -0.104. CLUAP1 (UniProt I3L2E1): the log2 fold change was inactive: -0.124. The figure for CLTA (UniProt P09496) is inactive: 0.025; for CKAP2L (UniProt Q8IYA6) it is inactive: -0.097.

For the target CLK3 (UniProt P49761), the log2 fold change was inactive: -0.032. The figure for CLTC (UniProt Q00610) is inactive: -0.028. The value for CHD9 (UniProt Q3L8U1) was inactive: -0.059; that for CLN6 (UniProt Q9NWW5) was inactive: -0.035. The figure for CMTM4 (UniProt Q8IZR5) is inactive: -0.029; for CLIC6 (UniProt Q96NY7) it is inactive: -0.017; for CLINT1 isoform 3 (UniProt Q14677) it is inactive: 0.02. Take CLASP1 isoform 4 (UniProt Q7Z460): the log2 fold change is inactive: -0.029.

For the target CHFR (UniProt Q96EP1), the log2 fold change is inactive: 0.257. The value for CLN5 (UniProt O75503) was inactive: -0.084.

On to CLCN6 isoform 5 (UniProt P51797), for which the log2 fold change is inactive: -0.032.

Turning to CHEK2 (UniProt O96017), the log2 fold change is inactive: 0.148.
